These are yes or no findings as the source states them, for the method shown. Binding seen in cells or lysates may run through a third protein. These calls come from enrichment with a bait or labelling near it, and not all partners need be listed.

Amino acid sequences for entries named in this document (tags omitted).
UniProt Q9H5K3: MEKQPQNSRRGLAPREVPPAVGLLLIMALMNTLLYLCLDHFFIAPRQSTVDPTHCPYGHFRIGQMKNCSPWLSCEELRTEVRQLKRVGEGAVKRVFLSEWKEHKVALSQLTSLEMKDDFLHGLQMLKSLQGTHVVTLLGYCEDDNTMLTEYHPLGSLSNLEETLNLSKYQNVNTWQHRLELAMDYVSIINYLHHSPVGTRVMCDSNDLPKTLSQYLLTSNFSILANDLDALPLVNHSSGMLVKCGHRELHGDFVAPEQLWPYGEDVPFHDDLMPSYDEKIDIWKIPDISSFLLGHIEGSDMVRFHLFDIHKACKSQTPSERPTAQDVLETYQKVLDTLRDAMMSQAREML

The assay addresses SGK196 as immunoprecipitated for mass spectrometry (human) (UniProt Q9H5K3). Nature of the assay: affinity purification with mass spectrometry; SGK196 immunoprecipitation from cell lysate (50 mM Tris-HCl pH 7.4, 150 mM NaCl, 1% NP-40, 0.1% SDS, 1 mM EDTA; Protein A/G magnetic beads, overnight), SDS-PAGE, mass spectrometry; cells not given.

B1: RPN1 (ribophorin I) found in the SGK196 precipitates (protein, UniProt P04843 24-607)
chain: ASSEAPPLINEDVKRTVDLSSHLAKVTAEVVLAHLGGGSTSRATSFLLALEPELEARLAHLGVQVKGEDEEENNLEVRETKIKGKSGRFFTVKLPVALDPGAKISVIVETVYTHVLHPYPTQITQSEKQFVVFEGNHYFYSPYPTKTQTMRVKLASRNVESYTKLGNPTRSEDLLDYGPFRDVPAYSQDTFKVHYENNSPFLTITSMTRVIEVSHWGNIAVEENVDLKHTGAVLKGPFSRYDYQRQPDSGISSIRSFKTILPAAAQDVYYRDEIGNVSTSHLLILDDSVEMEIRPRFPLFGGWKTHYIVGYNLPSYEYLYNLGDQYALKMRFVDHVFDEQVIDSLTVKIILPEGAKNIEIDSPYEISRAPDELHYTYLDTFGRPVIVAYKKNLVEQHIQDIVVHYTFNKVLMLQEPLLVVAAFYILFFTVIIYVRLDFSITKDPAAEARMKVACITEQVLTLVNKRIGLYRHFDETVNRYKQSRDISTLNSGKKSLETEHKALTSEIALLQSRLKTEGSDLCDRVSEMQKLDAQVKELVLKSAVEAERLVAGKLKKDTYIENEKLISGKRQELVTKIDHILDAL
With B1, the binding result is “binds”.

Values taken from article PMC6949223.
